# Data as given in PubChem BioAssay AID1159601 (NIAID, 2016)
# Assay: 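Genes whose loss changes TNF reporter induction by lipopeptide in human macrophage-like cells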 (primary screen)
# Cell system: human THP-1 reporter cells differentiated with PMA into macrophage-like cells
# Reagents: single siRNA against human genes
# Duration: ligand added 4 hours before read-out; cells assayed 48 to 72 hours after siRNA transfection
# Conditions: Pam3CSK4 (TLR2 ligand) for 4 hours; dose not given
# Measurement: 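TNF promoter dual-luciferase ratio measured 4 h after Pam3CSK4, converted to robust z-scores against negative controls and averaged across replicates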
# Reading the numbers: TNF reporter z-score: higher = stronger TNF promoter reporter activity
# Call rule: 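The depositor grades each siRNA by the size of its mean z-score in either direction, with steps at 1, 1.5, 2 and 2.5; active calls sit near -1.5 or below, or near 1.5 or above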
# Meaning of the calls: active = clear change (up or down); inactive = little change
# Shown is a random part of 756 deposited reagents. Of all reagents, 143 (19%) got an active call. 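Calls include both lowered and raised reporter signal; each row is a single siRNA, not a gene summary; Pam3CSK4 dose not stated.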 The numbers tell different reagents against one gene apart. The record does not give: the amount of reagent.
target gene,reagent no.,"TNF reporter z-score, replicate mean",Outcome
PIK3R2 (GeneID 5296),1,0.33,inactive
PIK3R2 (GeneID 5296),2,-1.28,inactive
PIK3R2 (GeneID 5296),3,0.418,inactive
PIK3R2 (GeneID 5296),4,-0.645,inactive
PIK3R2 (GeneID 5296),5,0.125,inactive
PIK3R2 (GeneID 5296),6,0.162,inactive
MAP3K14 (GeneID 9020),1,0.354,inactive
MAP3K14 (GeneID 9020),2,2.25,active
MAP3K14 (GeneID 9020),3,-0.564,inactive
MAP3K14 (GeneID 9020),4,-0.216,inactive
MAP3K14 (GeneID 9020),5,1.63,active
MAP3K14 (GeneID 9020),6,-1.48,inactive
MAP3K1 (GeneID 4214),1,-0.417,inactive
MAP3K1 (GeneID 4214),2,-0.593,inactive
MAP3K1 (GeneID 4214),3,-0.693,inactive
MAP3K1 (GeneID 4214),4,-2.92,active
MAP3K1 (GeneID 4214),5,-0.601,inactive
MAP3K1 (GeneID 4214),6,-0.936,inactive
SP1 (GeneID 6667),1,-3.23,active
SP1 (GeneID 6667),2,-1.57,active
SP1 (GeneID 6667),3,0.344,inactive
SP1 (GeneID 6667),4,1.5,active
SP1 (GeneID 6667),5,0.407,inactive
SP1 (GeneID 6667),6,-1.3,inactive
DUSP2 (GeneID 1844),1,0.132,inactive
DUSP2 (GeneID 1844),2,0.184,inactive
DUSP2 (GeneID 1844),3,-2.81,active
DUSP2 (GeneID 1844),4,0.154,inactive
DUSP2 (GeneID 1844),5,0.209,inactive
DUSP2 (GeneID 1844),6,0.0936,inactive
IRF3 (GeneID 3661),1,-0.48,inactive
IRF3 (GeneID 3661),2,-0.314,inactive
IRF3 (GeneID 3661),3,-1.08,inactive
IRF3 (GeneID 3661),4,1.13,inactive
IRF3 (GeneID 3661),5,-1.45,inactive
IRF3 (GeneID 3661),6,-0.272,inactive
TLR8 (GeneID 51311),1,0.416,inactive
TLR8 (GeneID 51311),2,1.15,inactive
TLR8 (GeneID 51311),3,-0.776,inactive
TLR8 (GeneID 51311),4,-1.68,active
TLR8 (GeneID 51311),5,0.672,inactive
TLR8 (GeneID 51311),6,-0.403,inactive
PTK2B (GeneID 2185),1,0.386,inactive
PTK2B (GeneID 2185),2,-1.43,inactive
PTK2B (GeneID 2185),3,0.701,inactive
PTK2B (GeneID 2185),4,-1.32,inactive
PTK2B (GeneID 2185),5,-1.09,inactive
PTK2B (GeneID 2185),6,-0.418,inactive
IL1B (GeneID 3553),1,-0.289,inactive
IL1B (GeneID 3553),2,-0.432,inactive
IL1B (GeneID 3553),3,-1.3,inactive
IL1B (GeneID 3553),4,-0.537,inactive
IL1B (GeneID 3553),5,-1.57,active
IL1B (GeneID 3553),6,-0.325,inactive
TICAM1 (GeneID 148022),1,-0.479,inactive
TICAM1 (GeneID 148022),2,0.71,inactive
TICAM1 (GeneID 148022),3,-0.166,inactive
TICAM1 (GeneID 148022),4,-2.9,active
TICAM1 (GeneID 148022),5,-1.19,inactive
TICAM1 (GeneID 148022),6,-0.597,inactive
TLR4 (GeneID 7099),1,1.45,inactive
TLR4 (GeneID 7099),2,-0.661,inactive
TLR4 (GeneID 7099),3,0.297,inactive
TLR4 (GeneID 7099),4,0.957,inactive
TLR4 (GeneID 7099),5,-1.13,inactive
TLR4 (GeneID 7099),6,-0.969,inactive
TLR6 (GeneID 10333),1,-0.137,inactive
TLR6 (GeneID 10333),2,1.41,inactive
TLR6 (GeneID 10333),3,-1.56,active
TLR6 (GeneID 10333),4,-0.219,inactive
TLR6 (GeneID 10333),5,0.569,inactive
TLR6 (GeneID 10333),6,-0.555,inactive
TAB3 (GeneID 257397),1,-0.312,inactive
TAB3 (GeneID 257397),2,-0.404,inactive
TAB3 (GeneID 257397),3,-0.281,inactive
TAB3 (GeneID 257397),4,-0.0874,inactive
TAB3 (GeneID 257397),5,1.46,inactive
TAB3 (GeneID 257397),6,-0.534,inactive

A stretch taken from the entries so far:
target gene,reagent no.,"TNF reporter z-score, replicate mean",Outcome
PTK2B (GeneID 2185),6,-0.418,inactive
IL1B (GeneID 3553),1,-0.289,inactive
IL1B (GeneID 3553),2,-0.432,inactive
IL1B (GeneID 3553),3,-1.3,inactive
IL1B (GeneID 3553),4,-0.537,inactive
IL1B (GeneID 3553),5,-1.57,active
